The text below walks through data of PubChem BioAssay AID2685 (National Center for Advancing Translational Sciences (NCATS), 2010).

The assay is described as follows: qHTS Assay for Lipid Storage Modulators in Drosophila S3 Cells.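 For cell number change: cells counted by Cell Tracker Red CMTPX staining in the red channel.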 Conditions: BODIPY lipid droplet fluorescence, 18-24 h; for cell number change: measured here: cell count max response, cells fed with added oleic acid. In short, it runs like this: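 Drosophila S3 cells got compounds at several concentrations plus oleic acid (400 uM solution). Laser-scanning cytometry with 488 nm excitation read lipid droplets at 500-530 nm and cells at 575-640 nm. Percent activity was relative to 20 uM Triacsin C.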
(In qHTS, concentration-response curves come from the screen itself.)

Where [1] appears, read: measured here: lipid fluorescence (Fed channel) AC50, cells fed with added oleic acid.
Where [2] appears, read: measured here: cell number channel AC50, cells fed with added oleic acid.

This is one part of the list. Shown are side measurements of this screen, not its main read-out; they come without a call. Most of these compounds were active or inconclusive in the main read-out, so they are no random draw. Words in brackets tell the shape of the fitted curve; partial curves, single points and poor fits give uncertain potencies.

As to `Cc1cc(C(=O)CSc2n[nH]c(N)n2)c(C)n1-c1cc(F)ccc1F`, the cell number change was determined as 4.37%.

As for `CCN(CC(=O)Nc1c(F)cccc1F)C(=O)CCSc1ccc(F)cc1`, the cell number change is -11.5%. In the case of `COc1ccc(OC)c(S(=O)(=O)NC2CC(=O)N(c3cccc(F)c3)C2)c1` (configuration not stated), under setting [1], the concentration at half-maximal activity (AC50) is 2.59 µM [rising, single point].

`CCNc1nc(NC(C)C)nc(Oc2ccc(/C=N/O)cc2)n1`: the cell number change was found to be 15.1%. Besides, the AC50 under setting [1] was 6.51 µM [falling, single point]. Take `COc1ccc2c(c1)c1nc(SCC(C)C)n(CCO)c(=O)c1n2C`: the cell number change was 7.38%. Besides, the AC50 under setting [1] was 6.51 µM [rising, single point]. With `O=C(CN(C(=O)c1csnn1)c1ccc(F)c(Cl)c1)NCc1ccccc1`, the cell number change was found to be 7.62%. Also, the half-maximal activity concentration (AC50) under setting [1] is 0.206 µM [falling, single point].

With `Cc1ccc(C2(C(F)(F)F)NC(=O)N3C(=C2C#N)Nc2ccccc23)cc1` (configuration not stated), the AC50 by setting is: under setting [2], 0.00411 µM [rising, full curve, poor fit]; under setting [1], 29.1 µM [rising, single point]. As to `Cc1ccc(NC(=O)CC2SC3=NCCN3C2=O)cc1` (configuration not stated), the cell number change is -77.8%. Moreover, the AC50 under setting [2] was 18.4 µM [falling, single point]. For the same compound, under setting [1], the AC50 is 20.6 µM [falling, single point]. With `COc1ccc(C2(C(=O)c3ccccc3)C(=O)c3ccccc3C2=O)cc1`, the cell number change is -3.31%. Under setting [2], the AC50 is 0.92 µM [falling, full curve, poor fit]. Turning to `CC(=O)N/C(=C\c1ccccc1)C(=O)OC/C=C/c1ccccc1`, the cell number change was determined as 23.2%. The AC50 under setting [1] is 29.1 µM [rising, partial curve]. Turning to `O=C1/C(=C\c2c(NCCOCCO)nc3ccccn3c2=O)SC(=S)N1Cc1ccco1`, the cell number change worked out at 42.2%. The same measure, in the same setting: the result for `Clc1ccc(OCc2nc3ccccc3[nH]2)cc1` reads 16.9%. Take `O=C(Nc1cccc(C(F)(F)F)c1)OCCN1CCN(Cc2ccccc2)CCC1=O`: the cell number change worked out at 34.1%. Under setting [2], the AC50 is 10.3 µM [rising, partial curve]. Besides, under setting [1], the AC50 is 13 µM [rising, partial curve]. `COc1cc(C(=O)NCCC(C)C)c([N+](=O)[O-])cc1OC`: the cell number change is -16.3%. On to `CC(C)Cn1c2c(c(O)c(C(=O)Nc3nccs3)c1=O)CCCC2`, for which the cell number change is -9.19%. Also, the concentration at half-maximal activity (AC50) under setting [1] is 0.13 µM [falling, full curve].

With `CN(C(=O)CC1C(=O)NCCN1Cc1ccc(F)cc1Cl)C1CCCCC1` (configuration not stated), the cell number change turned out to be 13.5%. On the same count and under the same terms, the result for `CC(=O)c1ccc(S(=O)(=O)N(CCCO)Cc2cc3cc4c(cc3[nH]c2=O)OCCO4)cc1` reads 3.95%. In the case of `COc1ccc(NC(=O)c2cc3ccccc3o2)cn1`, the cell number change was 5.28%. Under setting [1], the AC50 is 29.1 µM [falling, single point]. Turning to `COc1ccc(C(=O)NCC2CCCO2)cc1OC` (configuration not stated), the cell number change is -25.7%. The AC50 under setting [1] was 0.184 µM [falling, full curve, poor fit].

In general, AC50 refers to the concentration at which the activity in the assay is half-maximal. High values mean activity only at high concentration, low ones activity at low concentration.
